Measured values from doi:10.1101/2021.10.12.464121.
No constants are given. Whether binding was seen depends on the method and setting. Binding seen in cells or lysates may run through a third protein. Some results given as binding are weak or reduced against the parent protein; the word gives no strength. Tags and fused reporters may be left off the sequences shown.

Sequences of proteins named here, by UniProt entry; tags and fusion partners are left off. A change or cut given only in a name is not applied to a line headed by its entry. Residues count along the entry.
UniProt P06104, whole entry: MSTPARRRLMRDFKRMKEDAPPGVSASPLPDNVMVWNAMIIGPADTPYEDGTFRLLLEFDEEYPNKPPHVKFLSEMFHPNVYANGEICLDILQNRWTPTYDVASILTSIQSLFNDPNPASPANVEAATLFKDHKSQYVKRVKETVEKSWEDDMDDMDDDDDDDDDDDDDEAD
UniProt P06104, 1-150: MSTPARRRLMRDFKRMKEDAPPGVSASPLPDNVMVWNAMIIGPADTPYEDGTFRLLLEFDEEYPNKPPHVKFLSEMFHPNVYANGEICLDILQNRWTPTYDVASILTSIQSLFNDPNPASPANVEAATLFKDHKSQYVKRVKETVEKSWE
UniProt Q07963, whole entry: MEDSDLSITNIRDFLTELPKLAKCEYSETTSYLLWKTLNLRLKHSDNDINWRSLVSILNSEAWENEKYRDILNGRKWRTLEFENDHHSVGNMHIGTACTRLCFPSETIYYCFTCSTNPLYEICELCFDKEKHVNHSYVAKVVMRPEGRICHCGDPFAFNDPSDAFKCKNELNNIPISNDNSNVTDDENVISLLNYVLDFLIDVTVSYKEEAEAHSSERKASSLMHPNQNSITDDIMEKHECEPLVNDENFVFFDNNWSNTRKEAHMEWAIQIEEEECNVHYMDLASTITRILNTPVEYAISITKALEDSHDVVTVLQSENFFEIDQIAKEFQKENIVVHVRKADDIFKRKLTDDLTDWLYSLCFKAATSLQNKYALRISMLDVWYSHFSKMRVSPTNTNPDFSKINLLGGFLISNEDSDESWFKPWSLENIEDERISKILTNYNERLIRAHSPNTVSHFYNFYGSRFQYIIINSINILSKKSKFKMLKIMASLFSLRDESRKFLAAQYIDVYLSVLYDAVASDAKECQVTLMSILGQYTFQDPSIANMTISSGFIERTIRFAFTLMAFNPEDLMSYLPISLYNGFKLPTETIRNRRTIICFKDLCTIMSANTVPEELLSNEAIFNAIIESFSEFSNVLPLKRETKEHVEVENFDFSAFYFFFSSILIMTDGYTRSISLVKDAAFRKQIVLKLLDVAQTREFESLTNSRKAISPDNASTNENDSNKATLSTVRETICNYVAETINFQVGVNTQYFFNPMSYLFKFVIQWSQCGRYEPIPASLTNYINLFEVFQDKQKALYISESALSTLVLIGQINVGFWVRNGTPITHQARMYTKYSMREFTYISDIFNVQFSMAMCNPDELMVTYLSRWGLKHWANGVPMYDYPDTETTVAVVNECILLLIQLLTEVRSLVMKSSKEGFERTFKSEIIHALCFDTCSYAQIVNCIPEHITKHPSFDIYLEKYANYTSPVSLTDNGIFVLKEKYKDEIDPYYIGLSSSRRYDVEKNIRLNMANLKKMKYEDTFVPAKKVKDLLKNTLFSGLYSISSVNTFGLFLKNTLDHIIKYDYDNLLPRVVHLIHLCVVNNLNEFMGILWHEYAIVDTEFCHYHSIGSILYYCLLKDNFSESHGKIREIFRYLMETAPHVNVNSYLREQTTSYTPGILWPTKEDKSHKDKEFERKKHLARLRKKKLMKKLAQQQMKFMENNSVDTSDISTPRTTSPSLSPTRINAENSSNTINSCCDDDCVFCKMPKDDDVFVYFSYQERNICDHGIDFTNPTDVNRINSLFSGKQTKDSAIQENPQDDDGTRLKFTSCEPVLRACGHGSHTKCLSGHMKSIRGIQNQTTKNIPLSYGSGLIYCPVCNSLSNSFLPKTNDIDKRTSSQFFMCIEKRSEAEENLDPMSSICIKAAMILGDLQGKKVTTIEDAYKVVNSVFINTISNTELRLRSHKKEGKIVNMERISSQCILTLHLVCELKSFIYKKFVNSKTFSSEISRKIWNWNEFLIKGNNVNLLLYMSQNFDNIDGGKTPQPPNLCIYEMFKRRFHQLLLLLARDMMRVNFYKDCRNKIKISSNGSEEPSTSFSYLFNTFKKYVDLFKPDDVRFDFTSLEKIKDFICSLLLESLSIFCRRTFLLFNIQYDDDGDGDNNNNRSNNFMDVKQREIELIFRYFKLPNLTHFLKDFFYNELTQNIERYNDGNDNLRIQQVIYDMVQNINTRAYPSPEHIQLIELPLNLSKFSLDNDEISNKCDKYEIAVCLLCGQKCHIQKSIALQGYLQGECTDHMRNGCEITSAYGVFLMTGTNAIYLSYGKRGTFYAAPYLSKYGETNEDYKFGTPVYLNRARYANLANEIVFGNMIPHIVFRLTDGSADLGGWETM

What was measured:
[1] = molecular target: Flag epitope-tagged rad6-A126F (Saccharomyces cerevisiae) (UniProt P06104); experiment: co-IP
[2] = molecular target: Flag epitope-tagged rad6-A126T (Saccharomyces cerevisiae) (UniProt P06104); experiment: co-IP
[3] = molecular target: Flag epitope-tagged wild-type Rad6 (Saccharomyces cerevisiae) (UniProt P06104); experiment: co-IP
[4] = molecular target: His6-Rad6 (amino acids 1-150) (Saccharomyces cerevisiae) (UniProt P06104); experiment: pull-down
[5] = molecular target: His6-rad6-A126F (amino acids 1-150) (Saccharomyces cerevisiae) (UniProt P06104); experiment: pull-down
[6] = molecular target: His6-rad6-A126T (amino acids 1-150) (Saccharomyces cerevisiae) (UniProt P06104); experiment: pull-down

Measured: binding

6HA-tagged Ubr2 (from UniProt Q07963 1-1872) (enzyme)
binds: [1] | [2] | [3]

B1: 9Myc-tagged Rad18 (enzyme, UniProt P10862 1-487)
chain: MDHQITTASDFTTTSIPSLYQLDTLLRCHICKDFLKVPVLTPCGHTFCSLCIRTHLNNQPNCPLCLFEFRESLLRSEFLVSEIIQSYTSLRSSLLDALRIPKPTPVPENEEVPGPENSSWIELISESESDSVNAADDDLQIVATSERKLAKRSMTDILPLSSKPSKRNFAMFRSERIKKKSKPNEQMAQCPICQQFYPLKALEKTHLDECLTLQSLGKKPKISTTFPTESNPHNKSSSRFKVRTPEVDKSSCGETSHVDKYLNSMMSAEHQRLPKINFTSMTQSQIKQKLSSLGLSTNGTRQNMIKRYNHYEMLWNSNFCDSLEPVDEAELKRQLLSWDVSHNKTPQNSSNKGGISKLMIMKSNGKSSSYRKLLENFKNDKFNRKGWMVMFRKDFARLIREAKMKIKTGSSDSSGSVGHSNDGDGVEKVQSDQGTEDQQMEKDQDTVINEDRVAGERNLPNEDSTDADLSRELMDLNEYSKDPPGNN
binds: [1] | [2] | [3]

B2: Bre1 (enzyme, UniProt Q07457 1-700)
chain: MTAEPATKKIKLELSDPSEPLTQSDVIAFQKEALFRCINRRRVDFEALRKQYELSRRECIDVSRKLANIMALIVTLARFIETFCTDANEKQLCREIAQGDETLIVQRSDSFMKLLTKYGKPNTTDSNTNSNASDHIQELTTELKNLRKSKEELFYENSQLTEEISALKEYYTNIIRKYDRDESFTIKRVFKEDKTDAVKELREDEKESNENNIKSGNKDSSAINGDNTSKKSEKGDELVQAEDERKEDAENEKLELDLKFSDLRAEINSLSSTIKDLENIRRENEEELIKTRSEVSNLKKQQIAAADQDPDFKSYDHESLLAKIQHLTEQNAELSEINSSFLSKFQVLAKEKEIYTKKVREEFQKSLDSLVEMNSSLEKDVVRIRTARDDLLSKIAILEAEKSKTEVLSDLQHAIDILKEQWTKIDQRSNDTKSSSTQDALIKEIQDLEKGFRELSDLTHKKYSEIINHESVISKLTVEKTKADQKYFAAMRSKDSILIEIKTLSKSLSKSNELILQLKDSDRLLQQKIGNLHKQLDLSQNNERRLIDSSKTETLKIIDLNNTSTKLKRSLEKLQEESNKSIADMTHLETKLNDTEIELKHFKQKASHLESKCEKLHDTLFRGNNKNKGSSDEALVEELANFRTLVYCSLCSKNWKNMAIKTCGHVFCENCCKERLAARMRKCPTCNKAFSSNDLLTVHL
binds: [1] | [2] | [3]

B3: GST-tagged Rad18 Rad6-binding region (amino acids 301-487) (domain or fragment, UniProt P10862 301-487)
chain: RQNMIKRYNHYEMLWNSNFCDSLEPVDEAELKRQLLSWDVSHNKTPQNSSNKGGISKLMIMKSNGKSSSYRKLLENFKNDKFNRKGWMVMFRKDFARLIREAKMKIKTGSSDSSGSVGHSNDGDGVEKVQSDQGTEDQQMEKDQDTVINEDRVAGERNLPNEDSTDADLSRELMDLNEYSKDPPGNN
binds: [4] | [5] | [6]

B4: Bre1 Rad6-binding region (amino acids 1-214) (domain or fragment, UniProt Q07457 1-214)
chain: MTAEPATKKIKLELSDPSEPLTQSDVIAFQKEALFRCINRRRVDFEALRKQYELSRRECIDVSRKLANIMALIVTLARFIETFCTDANEKQLCREIAQGDETLIVQRSDSFMKLLTKYGKPNTTDSNTNSNASDHIQELTTELKNLRKSKEELFYENSQLTEEISALKEYYTNIIRKYDRDESFTIKRVFKEDKTDAVKELREDEKESNENNIK
binds: [4] | [5] | [6]
